The list shows a part of the results.
Columns and labels:
Assay in all cases: log2 fold change, soluble protein after heating vs DMSO (PISA); higher = thermal stabilisation; K562 lysate, 10 uM; active = over 0.2 and 3.5 SD of the protein, either way, in both replicates (recomputed)
[1] = compound: C1=CC2=NC=CN=C2C=C1/C=C/3\C(=O)NC(=O)S3
Procedure, shortened: (§1)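 To prepare the extract, K562 pellets were dounce-homogenised in PBS pH 7.4 with 1 mM MgCl2, giving crude material at 1 mg/mL protein. This was treated with 10 μM compound for 30 min, then heated in aliquots for 3 min over 48°C-58°C before pooling and addition of NP-40 to 0.5% at 4°C. Centrifugation at 21,000xg for 90 min left soluble protein in the supernatant, which TMTpro 16plex LC-MS/MS quantified with equalised channel sums. Results are log-two fold changes in thermal stability compared with solvent controls, from duplicates.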

Chains of the proteins cited; added tags and fusions are not shown. Lines headed by an entry give the natural chain unless they say otherwise; changes in a name come on top.
UniProt O43543: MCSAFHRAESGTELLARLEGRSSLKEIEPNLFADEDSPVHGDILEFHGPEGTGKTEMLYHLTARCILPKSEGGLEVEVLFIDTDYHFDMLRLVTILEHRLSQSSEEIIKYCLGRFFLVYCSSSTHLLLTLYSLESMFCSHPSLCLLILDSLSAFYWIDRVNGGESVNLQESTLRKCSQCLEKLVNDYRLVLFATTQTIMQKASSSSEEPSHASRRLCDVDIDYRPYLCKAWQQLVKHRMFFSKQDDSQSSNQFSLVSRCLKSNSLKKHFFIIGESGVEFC
UniProt Q9Y397: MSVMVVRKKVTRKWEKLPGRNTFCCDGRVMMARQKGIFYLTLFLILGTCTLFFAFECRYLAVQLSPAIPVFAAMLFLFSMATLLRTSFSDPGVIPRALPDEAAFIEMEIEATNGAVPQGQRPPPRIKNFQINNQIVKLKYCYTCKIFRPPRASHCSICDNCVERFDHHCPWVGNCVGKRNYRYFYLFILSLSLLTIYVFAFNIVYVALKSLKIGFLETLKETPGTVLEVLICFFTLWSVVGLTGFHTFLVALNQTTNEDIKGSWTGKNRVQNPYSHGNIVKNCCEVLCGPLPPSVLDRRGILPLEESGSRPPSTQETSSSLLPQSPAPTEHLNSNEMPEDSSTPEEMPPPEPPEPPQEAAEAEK
UniProt Q9C0D7: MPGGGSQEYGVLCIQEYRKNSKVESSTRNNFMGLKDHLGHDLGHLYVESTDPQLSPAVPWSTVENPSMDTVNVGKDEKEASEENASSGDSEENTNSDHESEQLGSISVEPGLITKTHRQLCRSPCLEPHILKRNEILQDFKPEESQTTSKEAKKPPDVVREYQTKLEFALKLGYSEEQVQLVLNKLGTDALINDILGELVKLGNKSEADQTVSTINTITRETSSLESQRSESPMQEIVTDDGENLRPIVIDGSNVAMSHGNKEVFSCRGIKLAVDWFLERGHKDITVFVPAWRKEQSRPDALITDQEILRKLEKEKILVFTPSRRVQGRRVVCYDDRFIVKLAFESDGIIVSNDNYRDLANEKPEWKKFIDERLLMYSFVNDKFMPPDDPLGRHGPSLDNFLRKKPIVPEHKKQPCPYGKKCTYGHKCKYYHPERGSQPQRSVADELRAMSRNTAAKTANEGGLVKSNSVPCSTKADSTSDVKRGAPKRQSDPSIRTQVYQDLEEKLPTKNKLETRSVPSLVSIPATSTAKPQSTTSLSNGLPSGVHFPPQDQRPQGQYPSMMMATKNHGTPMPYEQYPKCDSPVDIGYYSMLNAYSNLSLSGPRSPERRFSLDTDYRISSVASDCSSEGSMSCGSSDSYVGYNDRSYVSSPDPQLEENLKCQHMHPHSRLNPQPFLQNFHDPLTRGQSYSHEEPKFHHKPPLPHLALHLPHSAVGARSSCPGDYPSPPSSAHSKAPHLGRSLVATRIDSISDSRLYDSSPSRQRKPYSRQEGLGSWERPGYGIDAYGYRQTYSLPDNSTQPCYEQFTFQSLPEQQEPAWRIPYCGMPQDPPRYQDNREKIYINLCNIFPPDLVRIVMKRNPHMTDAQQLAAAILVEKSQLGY
UniProt O15060: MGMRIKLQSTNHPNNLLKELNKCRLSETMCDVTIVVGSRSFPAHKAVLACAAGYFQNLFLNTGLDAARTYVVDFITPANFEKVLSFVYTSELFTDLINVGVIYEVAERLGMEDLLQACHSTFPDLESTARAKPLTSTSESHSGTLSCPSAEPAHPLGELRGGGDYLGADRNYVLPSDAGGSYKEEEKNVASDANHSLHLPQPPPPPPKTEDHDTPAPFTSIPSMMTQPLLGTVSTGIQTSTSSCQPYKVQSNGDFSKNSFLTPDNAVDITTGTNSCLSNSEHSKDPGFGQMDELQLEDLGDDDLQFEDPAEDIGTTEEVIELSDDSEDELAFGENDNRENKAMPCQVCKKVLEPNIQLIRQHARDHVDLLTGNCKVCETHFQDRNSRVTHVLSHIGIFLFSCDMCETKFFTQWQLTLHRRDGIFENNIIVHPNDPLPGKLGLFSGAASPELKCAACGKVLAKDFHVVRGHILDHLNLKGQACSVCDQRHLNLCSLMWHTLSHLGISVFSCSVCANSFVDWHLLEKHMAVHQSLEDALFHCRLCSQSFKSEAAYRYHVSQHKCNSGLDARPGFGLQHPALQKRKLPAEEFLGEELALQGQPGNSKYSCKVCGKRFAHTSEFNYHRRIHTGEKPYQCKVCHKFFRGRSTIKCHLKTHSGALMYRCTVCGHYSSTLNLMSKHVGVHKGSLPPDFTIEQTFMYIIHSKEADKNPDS
UniProt Q5W0Z9: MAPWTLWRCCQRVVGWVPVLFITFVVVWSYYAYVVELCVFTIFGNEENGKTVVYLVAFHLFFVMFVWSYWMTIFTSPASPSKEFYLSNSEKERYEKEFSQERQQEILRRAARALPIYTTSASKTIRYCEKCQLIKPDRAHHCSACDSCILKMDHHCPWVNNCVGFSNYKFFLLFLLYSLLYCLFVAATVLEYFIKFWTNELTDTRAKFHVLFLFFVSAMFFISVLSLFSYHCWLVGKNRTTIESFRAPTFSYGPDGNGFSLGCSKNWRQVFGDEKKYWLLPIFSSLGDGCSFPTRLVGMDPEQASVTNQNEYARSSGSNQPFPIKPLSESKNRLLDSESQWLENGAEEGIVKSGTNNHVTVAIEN
UniProt Q5D1E8: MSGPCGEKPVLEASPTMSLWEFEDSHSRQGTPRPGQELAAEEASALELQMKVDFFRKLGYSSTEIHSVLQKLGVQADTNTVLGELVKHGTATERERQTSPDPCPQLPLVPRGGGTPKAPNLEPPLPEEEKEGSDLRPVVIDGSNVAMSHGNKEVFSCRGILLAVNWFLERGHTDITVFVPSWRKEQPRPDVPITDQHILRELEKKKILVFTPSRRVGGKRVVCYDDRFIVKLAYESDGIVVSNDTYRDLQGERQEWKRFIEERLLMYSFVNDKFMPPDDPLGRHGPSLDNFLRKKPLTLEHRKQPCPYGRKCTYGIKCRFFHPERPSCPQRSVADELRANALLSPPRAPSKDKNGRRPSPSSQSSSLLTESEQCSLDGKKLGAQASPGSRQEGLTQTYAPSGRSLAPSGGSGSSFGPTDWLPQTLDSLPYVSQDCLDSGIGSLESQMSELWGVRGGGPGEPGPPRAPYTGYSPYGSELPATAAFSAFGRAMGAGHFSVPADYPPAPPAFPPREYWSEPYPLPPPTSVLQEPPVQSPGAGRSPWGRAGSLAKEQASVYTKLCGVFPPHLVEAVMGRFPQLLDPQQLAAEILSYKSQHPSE
UniProt Q9NPG8: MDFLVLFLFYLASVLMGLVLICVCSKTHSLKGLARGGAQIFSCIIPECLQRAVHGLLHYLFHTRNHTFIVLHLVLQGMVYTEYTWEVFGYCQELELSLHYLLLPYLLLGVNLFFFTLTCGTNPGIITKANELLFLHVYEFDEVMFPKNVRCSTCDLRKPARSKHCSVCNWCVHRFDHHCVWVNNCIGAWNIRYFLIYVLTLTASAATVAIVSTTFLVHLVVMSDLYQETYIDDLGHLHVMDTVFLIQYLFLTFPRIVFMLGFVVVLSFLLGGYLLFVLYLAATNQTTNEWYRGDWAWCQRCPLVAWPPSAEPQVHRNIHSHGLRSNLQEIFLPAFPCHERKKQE
UniProt Q96K80: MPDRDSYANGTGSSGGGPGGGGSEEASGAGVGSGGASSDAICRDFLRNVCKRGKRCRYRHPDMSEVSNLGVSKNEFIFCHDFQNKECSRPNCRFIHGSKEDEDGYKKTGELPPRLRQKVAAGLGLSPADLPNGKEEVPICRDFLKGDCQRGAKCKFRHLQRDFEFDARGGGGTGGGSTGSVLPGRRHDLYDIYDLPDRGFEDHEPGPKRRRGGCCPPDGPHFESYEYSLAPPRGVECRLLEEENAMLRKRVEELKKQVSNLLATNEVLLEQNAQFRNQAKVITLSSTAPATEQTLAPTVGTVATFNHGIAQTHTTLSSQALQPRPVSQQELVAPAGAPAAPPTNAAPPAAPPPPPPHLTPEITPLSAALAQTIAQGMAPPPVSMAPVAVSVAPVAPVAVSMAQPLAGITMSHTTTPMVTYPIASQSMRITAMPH
UniProt Q8TBF4: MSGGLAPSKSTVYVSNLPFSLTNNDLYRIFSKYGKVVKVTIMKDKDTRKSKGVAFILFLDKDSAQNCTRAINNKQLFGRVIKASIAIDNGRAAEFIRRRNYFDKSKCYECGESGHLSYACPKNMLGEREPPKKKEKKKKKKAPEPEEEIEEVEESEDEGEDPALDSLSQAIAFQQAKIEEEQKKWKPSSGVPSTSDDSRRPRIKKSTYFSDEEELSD
UniProt Q5TC79: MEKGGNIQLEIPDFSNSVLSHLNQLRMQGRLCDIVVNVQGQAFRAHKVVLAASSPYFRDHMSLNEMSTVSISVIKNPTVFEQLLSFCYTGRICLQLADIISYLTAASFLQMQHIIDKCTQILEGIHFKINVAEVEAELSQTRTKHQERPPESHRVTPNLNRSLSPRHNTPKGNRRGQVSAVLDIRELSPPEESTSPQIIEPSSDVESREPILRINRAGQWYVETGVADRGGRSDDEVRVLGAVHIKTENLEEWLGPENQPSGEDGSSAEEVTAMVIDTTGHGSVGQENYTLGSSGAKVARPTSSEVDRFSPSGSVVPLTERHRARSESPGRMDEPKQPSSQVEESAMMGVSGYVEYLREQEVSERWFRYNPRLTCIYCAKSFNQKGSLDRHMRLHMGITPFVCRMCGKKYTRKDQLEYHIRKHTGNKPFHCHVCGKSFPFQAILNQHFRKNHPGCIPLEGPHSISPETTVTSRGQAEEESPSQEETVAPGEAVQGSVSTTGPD
UniProt Q9NTW7: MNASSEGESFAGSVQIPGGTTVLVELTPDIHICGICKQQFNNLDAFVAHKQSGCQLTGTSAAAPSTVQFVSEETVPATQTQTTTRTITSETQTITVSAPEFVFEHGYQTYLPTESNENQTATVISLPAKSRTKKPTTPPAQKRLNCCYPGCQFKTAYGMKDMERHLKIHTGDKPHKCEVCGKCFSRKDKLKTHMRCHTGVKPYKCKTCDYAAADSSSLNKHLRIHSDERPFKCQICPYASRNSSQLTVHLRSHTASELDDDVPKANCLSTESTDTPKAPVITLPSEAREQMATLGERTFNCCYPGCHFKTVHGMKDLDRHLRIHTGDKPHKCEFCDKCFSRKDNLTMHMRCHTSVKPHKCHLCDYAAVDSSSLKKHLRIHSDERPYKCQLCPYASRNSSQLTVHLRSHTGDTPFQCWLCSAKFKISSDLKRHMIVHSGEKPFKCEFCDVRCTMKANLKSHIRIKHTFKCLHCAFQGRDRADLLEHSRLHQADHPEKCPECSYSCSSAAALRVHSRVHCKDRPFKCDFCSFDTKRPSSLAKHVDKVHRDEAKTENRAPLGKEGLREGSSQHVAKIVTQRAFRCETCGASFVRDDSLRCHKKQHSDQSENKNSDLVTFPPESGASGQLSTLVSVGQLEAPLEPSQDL
UniProt O43829: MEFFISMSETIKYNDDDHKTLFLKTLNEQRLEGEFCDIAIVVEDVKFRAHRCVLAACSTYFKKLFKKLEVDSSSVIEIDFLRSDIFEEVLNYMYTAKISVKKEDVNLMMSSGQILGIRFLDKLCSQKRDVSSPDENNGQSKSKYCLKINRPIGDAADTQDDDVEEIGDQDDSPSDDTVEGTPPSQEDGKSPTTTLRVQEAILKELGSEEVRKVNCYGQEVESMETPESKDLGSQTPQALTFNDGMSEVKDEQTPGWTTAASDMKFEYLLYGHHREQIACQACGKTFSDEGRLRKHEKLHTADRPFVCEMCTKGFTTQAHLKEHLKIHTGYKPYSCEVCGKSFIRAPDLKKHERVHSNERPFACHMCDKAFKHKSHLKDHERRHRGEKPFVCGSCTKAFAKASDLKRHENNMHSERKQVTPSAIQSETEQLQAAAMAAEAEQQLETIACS
UniProt P17010: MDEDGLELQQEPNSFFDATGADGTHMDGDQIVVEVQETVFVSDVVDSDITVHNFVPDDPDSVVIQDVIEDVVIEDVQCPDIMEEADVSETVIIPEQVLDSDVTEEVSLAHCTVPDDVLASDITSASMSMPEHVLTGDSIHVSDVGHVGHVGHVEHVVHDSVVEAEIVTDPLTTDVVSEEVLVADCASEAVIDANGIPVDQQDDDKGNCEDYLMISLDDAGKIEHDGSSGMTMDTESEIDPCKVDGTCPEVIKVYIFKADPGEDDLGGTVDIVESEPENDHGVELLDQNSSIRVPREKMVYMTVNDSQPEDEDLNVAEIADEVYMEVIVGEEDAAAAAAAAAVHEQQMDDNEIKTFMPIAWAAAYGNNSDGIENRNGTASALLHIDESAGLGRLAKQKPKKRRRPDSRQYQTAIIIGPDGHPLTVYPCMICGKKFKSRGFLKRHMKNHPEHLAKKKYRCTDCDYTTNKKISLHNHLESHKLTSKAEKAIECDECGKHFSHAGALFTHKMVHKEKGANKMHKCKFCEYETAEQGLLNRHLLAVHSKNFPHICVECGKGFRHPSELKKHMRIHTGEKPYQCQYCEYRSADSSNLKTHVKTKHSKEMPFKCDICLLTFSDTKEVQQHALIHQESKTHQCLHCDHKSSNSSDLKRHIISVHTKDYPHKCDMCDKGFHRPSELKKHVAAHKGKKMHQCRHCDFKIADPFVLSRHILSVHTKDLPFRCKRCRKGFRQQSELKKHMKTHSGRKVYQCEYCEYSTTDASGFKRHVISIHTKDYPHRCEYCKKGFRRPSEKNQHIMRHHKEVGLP

[2] = compound: C1=CC=C(C=C1)C2=NC(=C(N2)C3=CC=NC=C3)C4=CC(=C(C=C4)Cl)O
Procedure, shortened: as §1

[3] = compound: C1COCCN1CCN2C3=CC=CC=C3N=C2NC(=O)C4=CC(=CC=C4)[N+](=O)[O-] [IRAK-1-4 Inhibitor I]
Procedure, shortened: as §1

[4] = compound: C/C(=N\NC(=O)C1=CC(=CC=C1)S(=O)(=O)N2CCOCC2)/C3=C(C=CC(=C3)Cl)O
Procedure, shortened: as §1

[5] = compound: C1=CC2=C(C=CC(=C2)/C=C\3/C(=O)NC(=NCC4=CC=CS4)S3)N=C1
Procedure, shortened: as §1

[6] = compound: C1=CC=C2C(=C1)C3=NNC4=CC=CC(=C43)C2=O
Procedure, shortened: as §1

[7] = compound: C1CCN(C1)C(=O)NC2=CC=CC(=C2)NC3=NC=C(C(=N3)NCCC4=CN=CN4)Br
Procedure, shortened: as §1

[8] = compound: C1CN(CCC1(CC2=CC=C(C=C2)Cl)N)C3=NC=NC4=C3C=CN4
Procedure, shortened: as §1

[9] = compound: C#Cc1cccc(Nc2ncnc3cc(OCCOC)c(OCCOC)cc23)c1 [erlotinib]
Procedure, shortened: as §1

[10] = compound: C1=CC(=CC=C1C2=NC3=C(N2)C=C(C=C3)C(=O)N)OC4=CC=C(C=C4)Cl
Procedure, shortened: as §1

Measured: log2 fold change

XRCC2 (UniProt O43543)
inactive: [1] -0.047

ZBTB34 (UniProt Q8NCN2)
inactive: [1] -0.214 | [2] -0.066 | [3] 0.069

ZDHHC14 (UniProt Q8IZN3)
inactive: [4] -0.044 | [5] -0.028 | [2] -0.041 | [6] -0.036 | [7] 0.001 | [8] 0.007 | [3] 0.065

ZFAND3 (UniProt Q9H8U3)
inactive: [4] -0.063 | [5] 0.025 | [1] -0.076 | [2] 0.004 | [6] 0.059 | [7] 0.043 | [8] 0.002 | [3] 0.013

ZCCHC4 (UniProt Q9H5U6)
inactive: [4] -0.096 | [5] 0.171 | [6] -0.024 | [7] -0.162 | [8] 0.107

ZDHHC9 (UniProt Q9Y397)
inactive: [9] 0.009 | [10] -0.136 | [2] 0.121 | [3] -0.071

ZDHHC17 (UniProt Q8IUH5)
inactive: [4] 0.197 | [5] 0.011 | [2] -0.082 | [6] -0.247 | [7] -0.066 | [8] -0.027 | [3] 0.205

ZFHX4 isoform 5 (UniProt Q86UP3)
inactive: [9] 0.016 | [10] 0.003 | [1] -0.056 | [2] -0.271 | [3] 0.237

ZCCHC10 (UniProt Q8TBK6)
inactive: [1] 0.134 | [2] -0.024 | [7] 0.206 | [8] 0.069 | [3] 0.114

ZC3H12C isoform 2 (UniProt Q9C0D7)
inactive: [9] 0.097 | [10] -0.038 | [1] 0.262 | [2] 0.235 | [3] -0.065

ZBTB39 (UniProt O15060)
inactive: [2] -0.086 | [3] -0.184

ZDHHC20 (UniProt Q5W0Z9)
inactive: [4] -0.031 | [5] -0.046 | [1] -0.092 | [6] 0.017 | [7] 0.032 | [8] 0.011

YIPF1 (UniProt Q9Y548)
inactive: [1] -0.114

ZC3H12A (UniProt Q5D1E8)
inactive: [9] -0.06 | [10] 0.025 | [2] 0.019 | [7] -0.022 | [8] 0.055 | [3] 0.112

ZDHHC4 (UniProt Q9NPG8)
inactive: [9] 0.048 | [10] 0.008 | [1] -0.02 | [2] -0.029 | [3] 0.028

ZBED6 (UniProt P86452)
inactive: [9] -0.149 | [10] 0.05 | [2] -0.003 | [3] 0.069

ZC3H10 (UniProt Q96K80)
inactive: [1] 0.023

ZCRB1 (UniProt Q8TBF4)
inactive: [9] -0.006 | [10] -0.02 | [2] -0.019 | [3] 0.032

ZBED4 (UniProt O75132)
inactive: [4] 0.188 | [5] -0.182 | [6] -0.005

YTHDC1 (UniProt Q96MU7)
inactive: [4] 0.155 | [5] -0.239 | [1] -0.003 | [6] 0.039 | [7] -0.101 | [8] -0.086

ZBTB37 (UniProt Q5TC79)
inactive: [2] -0.012 | [3] 0.028

YWHAZ (UniProt E7EX29)
inactive: [1] 0.135 | [7] -0.123 | [8] 0.053

ZFP64 isoform 5 (UniProt Q9NTW7)
inactive: [1] -0.211 | [2] -0.004 | [7] -0.033 | [8] 0.011 | [3] -0.006

ZBTB14 (UniProt O43829)
inactive: [9] -0.048 | [10] 0.051 | [1] 0.006 | [2] 0.016 | [3] 0.039

Random excerpt: 2 entries already listed
ZBTB14 (UniProt O43829)
inactive: [9] -0.048 | [10] 0.051 | [1] 0.006 | [2] 0.016 | [3] 0.039

ZFP64 isoform 5 (UniProt Q9NTW7)
inactive: [1] -0.211 | [2] -0.004 | [7] -0.033 | [8] 0.011 | [3] -0.006

Further records.

ZFX isoform 3 (UniProt P17010)
inactive: [2] -0.014 | [3] 0.043

ZFYVE1 (UniProt Q9HBF4)
inactive: [9] -0.051 | [10] 0.014 | [1] -0.062 | [2] 0.081 | [3] -0.034

YY1AP1 isoform 9 (UniProt Q9H869)
inactive: [9] 0.126 | [10] -0.037 | [2] 0.171 | [7] -0.058 | [8] -0.02 | [3] 0

ZFYVE21 isoform 2 (UniProt Q9BQ24)
inactive: [4] 0.218 | [5] -0.064 | [1] -0.021 | [2] 0.094 | [6] 0.084 | [7] 0.049 | [8] 0.074 | [3] 0.145

ZDHHC2 (UniProt Q9UIJ5)
inactive: [9] -0.046 | [10] 0.004 | [2] -0.063 | [7] 0.392 | [8] 0.081 | [3] 0.042

ZBTB48 (UniProt P10074)
inactive: [4] 0.065 | [5] 0.167 | [6] -0.083

ZFP92 (UniProt A6NM28)
inactive: [4] 0.024 | [5] -0.142 | [6] -0.052 | [7] -0.023 | [8] 0.125

Source: the supplement of paper PMC10849652
